Paper PMC3118807
These are yes or no findings as the source states them, for the method shown. Binding seen in cells or lysates may run through a third protein. Binding calls can cover weak binding; strength is not graded here.

The chains behind the UniProt entries cited, without tags or fusion partners. Where a name states a change or a piece, a line headed by the entry shows the natural chain unless it says otherwise.
UniProt P03230: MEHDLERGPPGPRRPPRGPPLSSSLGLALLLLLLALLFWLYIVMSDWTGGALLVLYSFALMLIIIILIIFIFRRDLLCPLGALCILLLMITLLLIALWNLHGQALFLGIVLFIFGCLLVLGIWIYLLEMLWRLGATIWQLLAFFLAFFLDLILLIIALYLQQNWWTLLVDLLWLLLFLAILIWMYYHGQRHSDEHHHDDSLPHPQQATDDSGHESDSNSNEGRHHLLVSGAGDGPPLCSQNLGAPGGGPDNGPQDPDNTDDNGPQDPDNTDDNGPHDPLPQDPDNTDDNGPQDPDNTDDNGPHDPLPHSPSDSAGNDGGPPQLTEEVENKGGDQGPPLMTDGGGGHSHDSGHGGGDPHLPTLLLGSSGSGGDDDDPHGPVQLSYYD
UniProt P41134: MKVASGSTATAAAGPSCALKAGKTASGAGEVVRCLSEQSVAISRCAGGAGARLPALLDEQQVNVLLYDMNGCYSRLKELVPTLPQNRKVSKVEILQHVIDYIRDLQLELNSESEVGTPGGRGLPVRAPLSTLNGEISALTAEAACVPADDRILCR

Target: HA-B95.8 LMP1 wild type (Epstein-Barr virus, B95.8 prototype) (UniProt P03230)
Assay: co-IP; HEK293 cells co-transfected with tagged LMP1 and tagged Id1; 400 µg of cell lysate incubated with primary antibody (anti-FLAG or anti-HA) for 2 hours, Protein A agarose for 1 hour, beads washed three times with lysis buffer; Western blot with anti-FLAG (M2) and anti-HA (12CA5)

FLAG-Id1-ΔC (from UniProt P41134) (domain or fragment)
binding: binds
